Results are given in words; binding and its absence hold for the method and conditions named. For part of these data: Binding calls can cover weak binding; strength is not graded here. For part of these data: In cells and extracts the contact can be indirect. For part of these data: Where a sequence is shown, tags or fusion partners need not be part of it. Values belong to the molecule of their own block, whether it stands above or below them.
Experiments:
Mus81-6His (S. pombe) = target: T1, Mus81-6His (S. pombe) (UniProt P87231); assay: pull-down; co-expression in E. coli Rosetta (DE3) pLysS; cleared lysate on Ni2+ agarose beads (Mus81-6His), imidazole eluate on amylose beads (MBP-Eme1), eluted with 10 mM maltose; 4°C
T1 sequence: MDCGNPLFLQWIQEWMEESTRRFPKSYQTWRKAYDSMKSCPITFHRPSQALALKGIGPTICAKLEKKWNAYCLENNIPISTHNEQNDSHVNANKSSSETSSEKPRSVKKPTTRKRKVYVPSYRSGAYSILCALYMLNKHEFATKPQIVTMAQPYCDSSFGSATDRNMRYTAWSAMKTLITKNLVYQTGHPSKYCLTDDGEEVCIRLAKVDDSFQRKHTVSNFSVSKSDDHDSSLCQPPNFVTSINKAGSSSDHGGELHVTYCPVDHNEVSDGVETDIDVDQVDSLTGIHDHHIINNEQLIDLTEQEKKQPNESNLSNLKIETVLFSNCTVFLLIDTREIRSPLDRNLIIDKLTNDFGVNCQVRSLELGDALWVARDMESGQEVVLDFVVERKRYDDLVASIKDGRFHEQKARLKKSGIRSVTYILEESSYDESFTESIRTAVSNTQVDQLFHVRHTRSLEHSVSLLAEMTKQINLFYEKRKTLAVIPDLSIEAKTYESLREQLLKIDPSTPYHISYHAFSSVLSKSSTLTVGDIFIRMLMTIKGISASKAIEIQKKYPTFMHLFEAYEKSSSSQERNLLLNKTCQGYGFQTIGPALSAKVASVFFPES

Sequences of proteins named here, by UniProt entry; tags and fusion partners are left off. A change or cut given only in a name is not applied to a line headed by its entry.
UniProt Q9C103: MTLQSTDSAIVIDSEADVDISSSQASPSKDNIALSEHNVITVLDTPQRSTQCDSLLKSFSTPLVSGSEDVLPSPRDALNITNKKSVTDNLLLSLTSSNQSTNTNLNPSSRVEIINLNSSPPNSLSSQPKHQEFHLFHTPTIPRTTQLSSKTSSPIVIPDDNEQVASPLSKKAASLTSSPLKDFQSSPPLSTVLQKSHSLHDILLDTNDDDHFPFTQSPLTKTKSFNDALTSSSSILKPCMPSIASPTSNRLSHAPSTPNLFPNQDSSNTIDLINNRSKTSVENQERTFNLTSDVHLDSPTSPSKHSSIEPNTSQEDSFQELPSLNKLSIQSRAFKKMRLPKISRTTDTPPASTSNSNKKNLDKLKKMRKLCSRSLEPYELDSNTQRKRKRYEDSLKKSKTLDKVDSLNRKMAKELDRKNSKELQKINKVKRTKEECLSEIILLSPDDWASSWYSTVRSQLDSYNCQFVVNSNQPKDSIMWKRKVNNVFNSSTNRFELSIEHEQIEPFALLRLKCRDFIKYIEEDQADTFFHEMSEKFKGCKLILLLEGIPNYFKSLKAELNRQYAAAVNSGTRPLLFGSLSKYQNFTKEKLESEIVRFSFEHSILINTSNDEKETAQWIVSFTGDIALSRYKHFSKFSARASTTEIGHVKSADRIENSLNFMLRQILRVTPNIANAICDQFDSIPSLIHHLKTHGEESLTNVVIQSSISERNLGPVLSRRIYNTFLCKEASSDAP

[1] = target: Eme1^1-130 with point mutations in both SIMs (S. pombe) (UniProt Q9C103); assay: two-hybrid; LexA / B42-AD system in S. cerevisiae EGY48 + pSH18-34; Eme1^1-130 as bait; clones spotted onto 3% Gal -URA-TRP-HIS-LEU and 3% Gal -URA-TRP-HIS-Xgal plates, 30°C, 2 to 4 days
[2] = target: Eme1^1-130 with point mutations in SIM2 (S. pombe) (UniProt Q9C103); assay: as above
[3] = target: Eme1^1-130 with point mutations in SIM1 (S. pombe) (UniProt Q9C103); assay: as above

Molecule: MBP-Eme1^cluster3* (mutated for S313/T384/S458) (from UniProt Q9C103)
binding (Mus81-6His (S. pombe)): binds

B1: Pmt3, the unique S. pombe SUMO ortholog (protein, UniProt O13351 1-117)
chain: MSESPSANISDADKSAITPTTGDTSQQDVKPSTEHINLKVVGQDNNEVFFKIKKTTEFSKLMKIYCARQGKSMNSLRFLVDGERIRPDQTPAELDMEDGDQIEAVLEQLGGCTHLCL
binding [1]: no binding
binding [2]: binds
binding [3]: binds weakly

Second part, the molecule after the results:

binding (Mus81-6His (S. pombe)): binds
Molecule: MBP-Eme1^cluster1* (mutated for S23/T50) (from UniProt Q9C103)

binding (Mus81-6His (S. pombe)): binds
Molecule: MBP-Eme1^cluster2* (mutated for S126/T145/T215) (from UniProt Q9C103)

Reference: paper PMC9032445
